From PubChem BioAssay AID2685 (National Center for Advancing Translational Sciences (NCATS), 2010)
This is one part of the list. Shown are side measurements of this screen, not its main read-out; they come without a call. The list favours compounds with an active or inconclusive main result. The note in brackets gives the kind of curve behind each potency; many fits are weak.

Assay: qHTS Assay for Lipid Storage Modulators in Drosophila S3 Cells;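 on cell number change: cells counted by Cell Tracker Red CMTPX staining in the red channel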
Conditions: BODIPY lipid droplet fluorescence, 18-24 h; for cell number change: measured here: cell count max response, cells fed with added oleic acid
How it was run: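 Laser-scanning cytometry quantifies lipid droplet accumulation (500–530 nm total intensity; droplet/cell object ratio) in oleic acid-fed (400 uM added) Drosophila S3 cells treated with a concentration series. 20 uM Triacsin C defined 100% inhibition.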

[1] = measured here: lipid fluorescence (Fed channel) AC50, cells fed with added oleic acid
[2] = measured here: cell number channel AC50, cells fed with added oleic acid

| Compound | cell number change [%] | AC50 [1] | AC50 [2] |
| --- | --- | --- | --- |
| O=C(Nc1ccc(S(=O)(=O)Nc2ccccn2)cc1)c1cccc(Br)c1 | -1.62 | 29.1 µM [falling, single point] | – |
| CC(CC(=O)Nc1ccc(S(=O)(=O)Nc2ncccn2)cc1)c1ccccc1 (centres undefined) | 12.2 | 8.2 µM [rising, partial curve, poor fit] | – |
| CCCN(CC(=O)Nc1ccccc1OC)C(=O)CCNC(=O)c1ccccc1OC | 28.9 | 3.66 µM [rising, full curve] | – |
| Cc1ccccc1OCCC(=O)OCC(=O)NC1CCCC1 | -29 | 18.4 µM [falling, partial curve] | 2.91 µM [falling, single point] |
| O=C(CN1C(=O)NC2(CCCCC2)C1=O)Nc1cccc2ncccc12 | -18.4 | – | – |
| Cc1cc(C)c2c(=O)n(-c3ccccc3)[nH]c2n1 | -20.9 | 0.00461 µM [rising, full curve, poor fit] | – |
| CCOC(=O)c1c(-c2ccsc2)csc1N | -30.2 | – | 29.1 µM [falling, single point] |
| NS(=O)(=O)c1cc([N+](=O)[O-])ccc1NCc1cccnc1 | 33.8 | 1.03 µM [rising, full curve, poor fit] | 0.82 µM [rising, full curve, poor fit] |
| CN(CC(=O)Nc1ccc(F)cc1)C(=O)c1ccccc1OCc1ccc(F)cc1 | – | 5.8 µM [rising, partial curve, poor fit] | – |
| Cn1c(=O)c2c(ncn2CC(=O)OCC(=O)c2ccc(Cl)cc2)n(C)c1=O | 1.07 | – | – |
| CCOCCCNCc1ccc(OCC(=O)N2CCOCC2)c(OC)c1 | 8.71 | – | – |
| Cn1c(=O)c2cc(S(=O)(=O)Nc3cc(C(=O)O)cc(C(=O)O)c3)ccc2n(C)c1=O | -9.28 | 25.9 µM [rising, single point] | – |
| O=C(CSc1ccccc1)N1CCc2ccccc21 | – | – | 1.3 µM [rising, partial curve] |
| Nc1nc(SCC(=O)N2CCOCC2)[nH]c(=O)c1-c1ccccc1 | 19.6 | 6.51 µM [falling, single point] | – |
| COc1ccc(OC)c(NC(=O)CCc2nnc3ccc(N4CCC(C)CC4)nn23)c1 | 11.8 | – | – |
| Cc1cc(O)c2/c(=N\N)c(-c3csc(C)n3)coc2c1 | 29.3 | 1.46 µM [rising, full curve, poor fit] | 1.46 µM [rising, full curve, poor fit] |
| CCOc1ccc2nc(NC(=O)CN3C(=O)C4CCCCC4C3=O)sc2c1 (centres undefined) | -12.2 | – | – |
| COc1ccc(CC(NC(C)=O)C(=O)NC2CCN(C(=O)C3CCCCC3)CC2)c(OC)c1 (centres undefined) | -0.833 | – | – |
| Cc1nc2ccc(NC(=O)c3cccnc3)cc2s1 | 1.62 | – | – |
| C=C1C[C@@]23CCC4[C@@](C)(CCC[C@@]4(C)C(=O)OC)C2CC[C@]1(OC(C)=O)C3 (some centres undefined) | -55.5 | 0.116 µM [rising, full curve, poor fit] | 4.61 µM [falling, single point] |

Some of these compounds in order of formula weight, low to high:

| Compound | cell number change [%] | AC50 [1] | AC50 [2] |
| --- | --- | --- | --- |
| Cc1cc(C)c2c(=O)n(-c3ccccc3)[nH]c2n1 | -20.9 | 0.00461 µM [rising, full curve, poor fit] | – |
| O=C(CSc1ccccc1)N1CCc2ccccc21 | – | – | 1.3 µM [rising, partial curve] |
| Cc1ccccc1OCCC(=O)OCC(=O)NC1CCCC1 | -29 | 18.4 µM [falling, partial curve] | 2.91 µM [falling, single point] |
| CCOCCCNCc1ccc(OCC(=O)N2CCOCC2)c(OC)c1 | 8.71 | – | – |
| CCOc1ccc2nc(NC(=O)CN3C(=O)C4CCCCC4C3=O)sc2c1 (centres undefined) | -12.2 | – | – |
| Cn1c(=O)c2c(ncn2CC(=O)OCC(=O)c2ccc(Cl)cc2)n(C)c1=O | 1.07 | – | – |
| CN(CC(=O)Nc1ccc(F)cc1)C(=O)c1ccccc1OCc1ccc(F)cc1 | – | 5.8 µM [rising, partial curve, poor fit] | – |
| COc1ccc(OC)c(NC(=O)CCc2nnc3ccc(N4CCC(C)CC4)nn23)c1 | 11.8 | – | – |
| CCCN(CC(=O)Nc1ccccc1OC)C(=O)CCNC(=O)c1ccccc1OC | 28.9 | 3.66 µM [rising, full curve] | – |
| Cn1c(=O)c2cc(S(=O)(=O)Nc3cc(C(=O)O)cc(C(=O)O)c3)ccc2n(C)c1=O | -9.28 | 25.9 µM [rising, single point] | – |
| COc1ccc(CC(NC(C)=O)C(=O)NC2CCN(C(=O)C3CCCCC3)CC2)c(OC)c1 (centres undefined) | -0.833 | – | – |

Next part

| Compound | cell number change [%] | AC50 [1] | AC50 [2] |
| --- | --- | --- | --- |
| COc1ccc(NC(=O)CSCC(=O)N2CCN(c3cccc(C(F)(F)F)c3)CC2)cc1 | -17.7 | – | – |
| Cc1cc(NC(=O)COc2cccc([N+](=O)[O-])c2)no1 | 0.54 | 23.1 µM [falling, single point] | – |
| O=C(CCCN1C(=O)c2cccnc2C1=O)Nc1ccc(F)cc1Cl | 84.7 | 0.58 µM [rising, single point] | 16.4 µM [rising, partial curve] |
| CN(C)C(=O)CCC(=O)N1CCCC(N2CCN(c3cccc(C(F)(F)F)c3)CC2)C1 (centres undefined) | -6.04 | 0.00731 µM [rising, full curve, poor fit] | – |
| COc1cccc(/C=N/n2c(-c3ccco3)nc3ccccc3c2=O)c1OC | -2.9 | 6.51 µM [rising, single point] | – |
| CC(C)=CCN1CCC(n2nccc2NC(=O)c2ccccc2Cl)CC1 | 20 | 18.4 µM [rising, single point] | – |
| COc1ccccc1NC(=O)CCC(=O)Nc1nnc(C(F)(F)F)s1 | -5.82 | 0.651 µM [falling, full curve] | 6.51 µM [falling, single point] |
| COc1ccc(C)cc1S(=O)(=O)N1CCN(C(=O)c2ncoc2-c2ccccc2C)CC1 | 3.95 | – | 0.651 µM [rising, partial curve] |
| COCCNC(=O)COC(=O)c1cc(-c2ccc(OC)cc2)nc2ccccc12 | – | 0.58 µM [rising, partial curve, poor fit] | 0.517 µM [rising, partial curve, poor fit] |
| C=CC(=O)OCCOCCOCCOCCOC(=O)C=C | 12.7 | 23.1 µM [rising, single point] | – |
| O=C(c1ccc(F)cc1)C(CN1CCOCC1)c1ccccc1 (centres undefined) | -53.2 | 29.1 µM [falling, partial curve] | 25.9 µM [falling, partial curve] |
| COc1cccc(C(=O)Nc2ccc(S(=O)(=O)N3CCN(C)CC3)cc2)c1 | 0.952 | 2.31 µM [falling, partial curve] | – |
| COc1cc(C(=O)NCCOc2cccc(C)c2)c(Br)c(OC)c1OC | -6.97 | – | – |
| CN(C)S(=O)(=O)n1cc(/C=C(\NC(=O)c2ccccc2)C(=O)NCCCN2CCOCC2)c2ccccc21 | 24.5 | 6.51 µM [rising, single point] | – |
| COc1ccc(OC)c(S(=O)(=O)Nc2cc3c(cc2N2CCCC2)n(C)c(=O)c(=O)n3C)c1 | 6.87 | – | – |
| CCOc1cccc2sc(N3CCN(C(=O)c4ccc5ncsc5c4)CC3)nc12 | 38.5 | – | 0.058 µM [rising, full curve, poor fit] |
| CCOC(=O)C1=C(C)NC(c2cccs2)C(=O)N1 (centres undefined) | -3.78 | 29.1 µM [falling, single point] | – |
| Cn1nnnc1SCC(=O)NC1CCCC1 | -5.13 | 0.13 µM [rising, partial curve, poor fit] | – |
| COc1ccc(N/N=C(/C(N)=O)C2=NC(C)(C)Cc3ccccc32)cc1 | -78.2 | 29.1 µM [falling, single point] | 29.1 µM [falling, single point] |
| CC(=O)N1CCN(S(=O)(=O)c2cccc(C(=O)NNC(=O)COc3ccc(F)cc3)c2)CC1 | 19 | 18.4 µM [rising, single point] | – |
| CC(=O)Nc1ccc(NS(=O)(=O)c2cc(-c3n[nH]c(=O)c4ccccc34)ccc2C)cc1 | 1.07 | – | – |

| Compound | cell number change [%] | AC50 [1] | AC50 [2] |
| --- | --- | --- | --- |
| CCN1CCN(CC(=O)Nc2nc3ccc(OC)cc3s2)CC1 | 6.83 | 0.58 µM [falling, single point] | – |
| Cc1c(-c2cccc(Cl)c2)nc2ccccc2c1C(=O)OC/C(O)=C(\C#N)c1nc2ccccc2[nH]1 | -56.2 | 18.4 µM [falling, single point] | 23.1 µM [falling, single point] |
| C=CC[n+]1c(-c2ccc(C)cc2)csc1NNC(=O)Nc1ccccc1 | -41.9 | 25.9 µM [falling, partial curve, poor fit] | 0.92 µM [falling, full curve] |
| C[C@H]1CN=C(N(C)C)N1CCc1cccc(F)c1 | -32.8 | – | 0.517 µM [falling, partial curve] |
| CS(=O)(=O)c1ccc(C(=O)Nc2ccc(N3CCCC3)cc2)c(Cl)c1 | 16.3 | 4.61 µM [falling, single point] | – |
| Cc1ccc2cc(CCNC(=O)C(=O)c3c(C)[nH]c4ccccc34)c(=O)[nH]c2c1 | 12.5 | 5.8 µM [rising, single point] | – |
| COc1cccc(/C=C/C(=O)OCC(=O)NCc2ccco2)c1OC | 10.5 | – | – |
| Cc1ccc(-n2nc3c(=O)n(CCCC(=O)NCCc4ccccc4)nc(C)c3c2C)cc1 | 85.5 | 5.17 µM [rising, single point] | 14.6 µM [rising, partial curve] |
| CC(C)CC(=O)Nc1ccc(-c2cn3cccnc3n2)cc1 | 9.72 | 18.4 µM [rising, partial curve] | – |
| Cc1cccc(CCNC(=O)CCS(=O)(=O)c2cc3c(cc2Cl)NC(=O)CO3)c1 | -6.65 | – | – |
| CC(C)(O)c1cc2ccc(C#Cc3ccsc3)cc2c(=O)o1 | 5.56 | 1.16 µM [rising, single point] | – |
| CC(=O)N1CCSc2ccc(S(=O)(=O)NCCc3ccc(Cl)cc3)cc21 | – | – | 1.3 µM [rising, full curve, poor fit] |
| CC(C)c1nc(SCC(=O)Nc2ccc3c(c2)OCO3)n[nH]1 | – | 3.66 µM [rising, single point] | – |
| CCN/N=C(\Cc1nc2ccccc2[nH]1)c1ccccc1 | – | 5.8 µM [rising, single point] | 4.11 µM [rising, single point] |
| CC1CCCN(c2ccc(C(=O)NCc3ccco3)cc2[N+](=O)[O-])C1 (centres undefined) | 15.7 | – | – |
| O=C(CSc1nnc(CNC(=O)c2ccc(F)cc2)o1)NCc1ccccc1 | -26.7 | 0.0082 µM [falling, full curve, poor fit] | – |
| COc1ccc(CCNc2oc(COc3ccccc3Cl)nc2C#N)cc1OC | -31.6 | 16.4 µM [falling, single point] | 14.6 µM [falling, partial curve] |
| [O-]/[N+](=C\c1ccco1)c1ccc(Cl)cc1 | 3.28 | – | – |
| Cc1nn(CC(=O)NC(=O)NC2CCCCC2C)c(=O)c(C#N)c1C (centres undefined) | 2.15 | 18.4 µM [rising, single point] | – |
